Test results as given in the supplement of paper PMC6690932.
Where “and” joins values, the source holds several entries; their conditions need not be identical. Equal values may be shown once. ± gives the standard deviation of the averaged measurements. This is one part of the list. Most values come without repeats; read them as rough.

test system: HeLa; assay: lysosomal-METRIQ red/green fluorescence ratio relative to DMSO (ratio to DMSO); higher = higher lysosomal activity / lysosomal biogenesis; details: 10 µM; 12 h

Structure (SMILES) | lysosomal-METRIQ red/green fluorescence ratio
NC(=O)c1ccccc1 [Benzamide] | 1.13
O=C(CCCCCN1C(=O)c2cccc3cccc(c23)C1=O)NO [Scriptaid] | 0.6
CC(ONC(=O)c1cc(C(F)(F)F)cc(C(F)(F)F)c1)C(=O)Nc1ccc(Cl)cc1 (stereo not given) | 1.09
CCN1/C(=C/C(C)=O)Sc2ccc(OC)cc21 | 1.18
O=C(O)c1ccccc1Nc1ccccc1 [N-phenylanthranilic acid] | 1
COc1cc2nccc(Oc3ccc(NC(=S)NC(=O)c4ccccc4C)cc3)c2cc1OC [PDGF receptor tyrosine kinase inhibitor V] | 1
Nc1nc(Nc2ccc(S(N)(=O)=O)cc2)nn1C(=S)Nc1c(F)cccc1F [Cdk1/2 inhibitor III] | 1.68
COc1cc2ncnc(Nc3cccc(Cl)c3)c2cc1OC | 1.07 ± 0.11
CC1=Nc2ccc(Cl)cc2S(=O)(=O)N1 [Diazoxide] | 1.04
O=C(NCc1ccccc1)c1csc(Nc2ccncn2)n1 [Thiazovivin] | 0.955
Cc1c[nH]c(/C=C2\C(=O)Nc3ccccc32)c1CCC(=O)O | 1.18
Fc1ccc(Cl)cc1-c1nc(Nc2ccncc2)c2nccnc2n1 | 0.955
COc1cc([C@@H]2c3cc4c(cc3[C@@H](O[C@@H]3O[C@@H]5CO[C@@H](C)O[C@H]5[C@H](O)[C@H]3O)[C@H]3COC(=O)[C@H]23)OCO4)cc(OC)c1O [Etoposide (VP-16)] | 1.16
Cc1cc(C=C2C(=O)C=CC2=O)cc(C)c1O | 0.636
CC[C@H](C)C(=O)O[C@H]1C[C@@H](C)C=C2C=C[C@H](C)[C@H](CC[C@@H]3C[C@@H](O)CC(=O)O3)[C@H]21 [Lovastatin] | 1.1
COc1ccc(Cl)cc1C(=O)NCCc1ccc(S(=O)(=O)NC(=O)NC2CCCCC2)cc1 [Glibenclamide] | 1.04
NC(=O)Nc1sc(-c2ccccc2)cc1C(N)=O [IKK-2 inhibitor VI] | 1.31
NC(=O)NO [Hydroxyurea] | 1

2 of these compounds, reformatted:
Structure (SMILES)	lysosomal-METRIQ red/green fluorescence ratio
Cc1c[nH]c(/C=C2\C(=O)Nc3ccccc32)c1CCC(=O)O	1.18
Fc1ccc(Cl)cc1-c1nc(Nc2ccncc2)c2nccnc2n1	0.955

Next part

Structure (SMILES) | lysosomal-METRIQ red/green fluorescence ratio
C/C=C/C=C\C=C/C(O)C(C)C(CCC(C)C1OC(=O)C=CC1C)OP(=O)(O)O (stereo not given) [Cytostatin] | 0.933
COc1cc2ncc(-c3ccccc3)nc2cc1OC | 0.971 ± 0.14
Cc1cn(-c2cc(NC(=O)c3ccc(C)c(Nc4nccc(-c5cccnc5)n4)c3)cc(C(F)(F)F)c2)cn1 [nilotinib] | 1.18
OCCn1cc(-c2cnc3nnn(Cc4ccc5ncccc5c4)c3n2)cn1 | 0.955
N#C/C(=C(/N)Sc1ccccc1N)c1cccc(C(O)c2ccncc2)c1 (stereo not given) [MEK inhibitor I] | 0.75
CN(C)c1ccccc1CN1CCCN(Cc2ccccc2N(C)C)C1c1ccncc1 | 1
O=c1c2ccccc2[nH]c(=S)n1CCN1CCC(=C(c2ccc(F)cc2)c2ccc(F)cc2)CC1 [Diacylglycerol kinase inhibitor II] | 1
CO[C@@H]1[C@H](OC(=O)/C=C/C=C/C=C/C=C/C(=O)O)CC[C@]2(CO2)[C@H]1[C@@]1(C)O[C@@H]1CC=C(C)C [Fumagillin] | 1
CNCc1ccc(-c2[nH]c3cc(F)cc4c3c2CCNC4=O)cc1 | 1
CC(=O)N[C@@H](CSC(=O)[C@]1([C@@H](O)C(C)C)NC(=O)[C@H](C)[C@@H]1O)C(=O)O [Lactacystin] | 0.6
C1=Cc2nc1cc1nc(c(-c3ccccc3)c3ccc(cc4ccc([nH]4)c2-c2ccccc2)[nH]3)C=C1 | 0.409
Cc1nc(Nc2ncc(C(=O)Nc3c(C)cccc3Cl)s2)cc(N2CCN(CCO)CC2)n1 [dasatinib] | 1.05
CC(C)n1nc(-c2cc3cc(O)ccc3[nH]2)c2c(N)ncnc21 [Torkinib] | 0.864
CCN(CC)CC(=O)Nc1c(C)cccc1C [Lidocaine] | 1.08
O=c1[nH]c(NCc2ccccc2)nc2nc[nH]c12 [Benzylguanine] | 0.87
Cc1ncc2ccccc2c1C#N [4-cyano-3-methylisoquinoline] | 1.06
C[C@@H](N)[C@H]1CC[C@H](C(=O)Nc2ccncc2)CC1 | 1.12 and 1.2
